From publication PMC11999606, “Dynein light chains 1 and 2 are auxiliary proteins of pH-sensitive Kir4.1 channels” (The Journal of Biological Chemistry, 2025) come the findings set out here.

In the test the target is full-length Kir4.1, N-terminal tags cleaved off (UniProt P78508). The test can be described thus: cryo-EM structure; single-particle cryo-EM of purified full-length Kir4.1 (with copurified LC8) supplemented with diC8 PIP2; maps at 6.69 Å and 6.93 Å; rigid body fit only; both purified.

No constants are given. Whether binding was seen depends on the method and setting. Some binding calls cover weakened binding; strength is not graded here. Sequences can lack the tags named with a protein.

B1: full-length Kir4.1, N-terminal tags cleaved off (natural protein, UniProt P78508 1-379, looked up)
chain: MTSVAKVYYSQTTQTESRPLMGPGIRRRRVLTKDGRSNVRMEHIADKRFLYLKDLWTTFIDMQWRYKLLLFSATFAGTWFLFGVVWYLVAVAHGDLLELDPPANHTPCVVQVHTLTGAFLFSLESQTTIGYGFRYISEECPLAIVLLIAQLVLTTILEIFITGTFLAKIARPKKRAETIRFSQHAVVASHNGKPCLMIRVANMRKSLLIGCQVTGKLLQTHQTKEGENIRLNQVNVTFQVDTASDSPFLILPLTFYHVVDETSPLKDLPLRSGEGDFELVLILSGTVESTSATCQVRTSYLPEEILWGYEFTPAISLSASGKYIADFSLFDQVVKVASPSGLRDSTVRYGDPEKLKLEESLREQAEKEGSALSVRISNV
notes: Kir4.1 (KCNJ10) inwardly rectifying potassium channel, full length; Purified as a tetramer that carries copurified endogenous LC8; also called KCNJ10; Kir4.1 WT; source: purified (FLAG resin, eluted by HRV 3C cleavage, Superose 6 SEC); not shown: FLAG, N-terminal, cleaved; GFP, N-terminal, cleaved
As to B1, the binding entry is on record as “binds”.
